Data on one molecule can be found in doi:10.1101/2021.01.10.425752.

No constants are given. Whether binding was seen depends on the method and setting. Some results given as binding are weak or reduced against the parent protein; the word gives no strength.

For this assay, the target named is T1, RhopH2 (P. falciparum) (UniProt C0H571).
T1 sequence: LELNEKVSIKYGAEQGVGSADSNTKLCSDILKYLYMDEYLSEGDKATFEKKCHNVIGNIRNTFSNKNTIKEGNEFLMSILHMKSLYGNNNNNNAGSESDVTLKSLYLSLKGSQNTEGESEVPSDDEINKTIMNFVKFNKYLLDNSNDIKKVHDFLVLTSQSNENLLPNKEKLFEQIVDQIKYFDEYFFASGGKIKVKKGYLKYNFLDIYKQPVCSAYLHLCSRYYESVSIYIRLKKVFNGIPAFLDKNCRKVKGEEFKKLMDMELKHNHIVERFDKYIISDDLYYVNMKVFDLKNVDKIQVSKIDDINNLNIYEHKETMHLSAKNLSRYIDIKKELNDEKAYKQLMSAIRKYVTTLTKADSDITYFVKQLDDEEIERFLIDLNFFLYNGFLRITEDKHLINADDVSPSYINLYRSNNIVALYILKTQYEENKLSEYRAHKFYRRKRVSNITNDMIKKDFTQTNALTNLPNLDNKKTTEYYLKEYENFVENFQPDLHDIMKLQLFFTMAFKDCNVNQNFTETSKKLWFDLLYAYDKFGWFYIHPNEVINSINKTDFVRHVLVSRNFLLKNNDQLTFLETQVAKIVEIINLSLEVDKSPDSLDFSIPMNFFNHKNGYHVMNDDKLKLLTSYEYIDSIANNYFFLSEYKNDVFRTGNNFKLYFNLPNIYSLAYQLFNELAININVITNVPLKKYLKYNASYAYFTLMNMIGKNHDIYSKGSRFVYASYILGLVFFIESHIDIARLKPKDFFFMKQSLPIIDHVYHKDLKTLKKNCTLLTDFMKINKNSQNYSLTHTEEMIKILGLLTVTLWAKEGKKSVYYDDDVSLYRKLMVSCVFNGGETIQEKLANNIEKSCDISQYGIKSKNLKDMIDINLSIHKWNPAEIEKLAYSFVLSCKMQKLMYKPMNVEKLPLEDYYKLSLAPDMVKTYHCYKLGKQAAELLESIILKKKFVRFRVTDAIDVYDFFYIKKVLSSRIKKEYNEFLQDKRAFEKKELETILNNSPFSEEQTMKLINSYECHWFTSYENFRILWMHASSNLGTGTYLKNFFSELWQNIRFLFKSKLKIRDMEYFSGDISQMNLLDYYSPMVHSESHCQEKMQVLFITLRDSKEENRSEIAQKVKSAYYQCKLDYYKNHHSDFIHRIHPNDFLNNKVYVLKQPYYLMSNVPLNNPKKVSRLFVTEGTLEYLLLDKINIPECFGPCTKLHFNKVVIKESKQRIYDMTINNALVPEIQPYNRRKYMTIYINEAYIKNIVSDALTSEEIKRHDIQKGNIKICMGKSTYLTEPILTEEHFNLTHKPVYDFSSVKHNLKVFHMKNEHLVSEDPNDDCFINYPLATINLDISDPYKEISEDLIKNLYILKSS
The assay can be described thus: cryo-EM structure.

B1: RhopH3 (protein, UniProt Q8I395 25-897)
chain: KDVFAGFVTKKLKTLLDCNFALYYNFKGNGPDAGSFLDFVDEPEQFYWFVEHFLSVKFRVPKHLKDKNIHNFTPCLNRSWVSEFLKEYEEPFVNPVMKFLDKEQRLFFTYNFGDVEPQGKYTYFPVKEFHKYCILPPLIKTNIKDGESGEFLKYQLNKEEYKVFLSSVGSQMTAIKNLYSTVEDEQRKQLLKVIIENESTNDISVQCPTYNIKLHYTKECANSNNILKCIDEFLRKTCEKKTESKHPSADLCEHLQFLFESLKNPYLDNFKKFMTNSDFTLIKPQSVWNVPIFDIYKPKNYLDSVQNLDTECFKKLNSKNLIFLSFHDDIPNNPYYNVELQEIVKLSTYTYSIFDKLYNFFFVFKKSGAPISPVSVKELSHNITDFSFKEDNSEIQCQNVRKSLDLEVDVETMKGIAAEKLCKIIEKFILTKDDASKPEKSDIHRGFRILCILISTHVEAYNIVRQLLNMESMISLTRYTSLYIHKFFKSVTLLKGNFLYKNNKAIRYSRACSKASLHVPSVLYRRNIYIPETFLSLYLGLSNLVSSNPSSPFFEYAIIEFLVTYYNKGSEKFVLYFISIISVLYINEYYYEQLSCFYPKEFELIKSRMIHPNIVDRILKGIDNLMKSTRYDKMRTMYLDFESSDIFSREKVFTALYNFDSFIKTNEQLKKKNLEEISEIPVQLETSNDGIGYRKQDVLYETDKPQTMDEASYEETVDEDAHHVNEKQHSAHFLDAIAEKDILEEKTKDQDLEIELYKYMGPLKEQSKSTSAASTSDEISGSEGPSTESTSTGNQGEDKTTDNTYKEMEELEEAEGTSNLKKGLEFYKSSLKLDQLDKEKPKKKKSKRKKKRDSSSDRILLEESKTFTSENEL
For the molecule B1, the binding result is “binds”.
